Experimental data as given in PubChem BioAssay AID624246 (National Center for Advancing Translational Sciences (NCATS), 2012).
The campaign covered roughly 370,000 compounds. About 100 (0.027%) were called active. The shares of active, inactive and inconclusive entries below differ from those in the screen. Calls follow the shape of the dose curve; as a rule, active = well fitted inhibition curve with a large enough effect in the polarisation, with a control signal flat; inconclusive = small, poorly fitted or top-dose-only effect, or effect the other way, or a change in a side signal; inactive = no such curve, though single readings can be large or run the other way; the % refers to the polarisation. Where the call is inconclusive, the potency comes from a doubtful curve fit. “Side channel” marks fits to a control or component signal instead of the main read-out.

Amino acid sequences for entries named in this document (tags omitted).
UniProt P11308, whole entry, looked up: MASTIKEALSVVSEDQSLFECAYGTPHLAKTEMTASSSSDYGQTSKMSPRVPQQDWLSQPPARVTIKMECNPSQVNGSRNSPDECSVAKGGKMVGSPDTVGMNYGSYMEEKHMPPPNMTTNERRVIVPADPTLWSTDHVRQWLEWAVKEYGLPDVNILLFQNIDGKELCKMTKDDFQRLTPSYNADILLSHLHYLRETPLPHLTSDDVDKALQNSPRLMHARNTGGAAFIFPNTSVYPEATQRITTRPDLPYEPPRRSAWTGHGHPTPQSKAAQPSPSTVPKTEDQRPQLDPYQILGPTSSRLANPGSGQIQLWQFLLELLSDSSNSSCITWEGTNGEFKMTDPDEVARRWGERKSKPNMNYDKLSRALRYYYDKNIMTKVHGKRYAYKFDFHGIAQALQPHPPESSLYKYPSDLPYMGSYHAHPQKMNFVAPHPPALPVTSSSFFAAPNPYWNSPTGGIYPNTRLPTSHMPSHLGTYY

target: Transcriptional regulator ERG (Homo sapiens) (UniProt P11308); assay: qHTS for Small Molecule Inhibitors of the ERG Ets/DNA interaction; details: fluorescence polarization, His-ERG Ets domain / labelled DNA; series mostly up to 76.9 µM
Summary of the method: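 His-tagged ERG Ets domain (1 uM in the protein solution; 300mM KCl, 50mM Tris-HCl, 1mM EDTA, 1mM DTT, pH 7.5) received compound, then a probe mix of 5 nM fluorescein-DNA and 100nM Texas-615-DNA. Fluorescence polarization was read for both dyes.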
Potency is read from the fitted curve at half-maximal effect.

Structure (SMILES)	Potency
CSCCC(NC(=O)c1ccccc1Br)C(=O)Nc1ccc(C)cc1 (stereo not given)	inconclusive: 3.55 µM [quencher, side channel, partial curve, poor fit]
CC(C)(C)c1nnc(NC(=O)c2cc(-c3ccccc3)nc3ccccc23)s1	inactive
O=C(NCc1ccc(Cl)cc1)c1cc2ccccc2o1	inconclusive: 3.55 µM [fluorescent, side channel, partial curve, poor fit]
CCCCCCCCCC(=O)N1CCN(c2cc3c(cc2F)c(=O)c(C(=O)O)cn3CC)CC1	inconclusive: 31.6 µM [inhibitor, single point]
COC(=O)c1ccc(NC(=S)N2CCN(C(=O)c3ccco3)CC2)cc1	inconclusive: 12.6 µM [inhibitor, partial curve, poor fit]
O=C(CSc1nc2ccsc2c(=O)n1Cc1ccccc1F)NCc1ccccc1	inconclusive: 3.55 µM [quencher, side channel, partial curve, poor fit]
O=C(CCC(=O)Nc1ccc(F)cc1)N/N=C/c1ccc(O)cc1O	inactive
COc1ccccc1OCCCN1C(=O)C(=O)c2cccc(C)c21	inconclusive: 35.5 µM [inhibitor, single point]
Cc1cc2cc(CNC(=O)c3ccc(S(=O)(=O)N(C)C)cc3)ccc2n1C	inconclusive: 35.5 µM [inhibitor, partial curve, poor fit]
CCOC(=O)C1(CCOc2ccccc2)CCN(Cc2ccc(O)c(Cl)c2)CC1	inactive
CCCCC12CN3CC(C)(CN(C1)C3c1ccc([N+](=O)[O-])o1)C2=O (stereo not given)	inactive
FC(F)Oc1ccc(NC(=S)NC2CCCCCCC2)cc1	inactive
COc1ccccc1C(C(=O)NC1CCCC1)N(C(=O)c1csnn1)C1CC1 (stereo not given)	inactive
NC(=O)c1ccccc1OC1CCC1	inconclusive: 39.8 µM [fluorescent, side channel, partial curve, poor fit]
CCN(CCCNC(=O)c1cc2cc3ccc(OC)cc3nc2s1)c1ccccc1	inactive
COCc1cc(C)nc(SCC(=O)NCc2ccco2)c1C#N	inactive
O=C1N(Cc2cccnc2)C[C@@H]2C[C@@H](c3ccccc3C(F)(F)F)N3CCC[C@@]123	active: 31.6 µM
COc1ccc(C)cc1NS(=O)(=O)c1cccc2nonc12	inconclusive: 3.98 µM [inhibitor, partial curve, poor fit]
CC(=O)c1cccc(S(=O)(=O)N2CCC(c3nc4ccccc4[nH]3)CC2)c1	inconclusive: 11.2 µM [inhibitor, single point]
COC(=O)c1cccc(NC(=S)Nc2ccccc2Cl)c1	inconclusive: 28.2 µM [inhibitor, single point]
O=S(=O)(Nc1cc(S(=O)(=O)N2CCOCC2)ccc1NCC1CCCO1)c1ccc(F)cc1 (stereo not given)	inconclusive: 50.1 µM [inhibitor, single point]
CCOC(=O)COc1ccc(/C=C2/C(=O)NN(c3ccc(F)cc3)C2=O)cc1OC	inconclusive: 5.01 µM [inhibitor, single point]

Structure (SMILES)	Potency
CCOc1ccc(C2c3[nH]c4ccccc4c3CCN2CCCn2cccn2)cc1 (stereo not given)	inactive
COCCNC(=O)Cn1c(=O)n(CCCC(=O)NCc2ccc3c(c2)OCO3)c(=O)c2sccc21	inconclusive: 39.8 µM [inhibitor, single point]
COc1cc2nc(N3CCN(C(=O)[C@@H]4CCCO4)CC3)nc(N)c2cc1OC	inconclusive: 39.8 µM [inhibitor, single point]
COc1ccc(N/C=C(\C(C)=O)c2ccc(OC)c(OC)c2)cc1OC	inconclusive: 22.4 µM [inhibitor, partial curve, poor fit]
Cc1nn(-c2cccc(Cl)c2)c(Cl)c1/C=N/NC(=O)c1cccs1	inactive
CCc1ccc(Nc2cc(C(=O)NCCCN3CCOCC3)c3ccccc3n2)cc1	inactive
Cc1ccccc1NC(=O)CN1CCN(C(=O)c2ccco2)CC1	inconclusive: 7.08 µM [inhibitor, partial curve, poor fit]
COc1ccc(NC(=O)CSc2cccc3cccnc23)c(OC)c1	inconclusive: 56.2 µM [inhibitor, partial curve, poor fit]
Cc1ccc(-c2nc(S(=O)(=O)c3ccc(C)cc3)c(N3CCOCC3)o2)cc1	inconclusive: 11.2 µM [inhibitor, single point]
COc1ccc(C(=O)N2CCCC(CCC(=O)NCc3ccccc3F)C2)c(OC)n1 (stereo not given)	inconclusive: 11.2 µM [inhibitor, single point]
COc1ccc(C2=NN(c3nc(-c4ccccc4)c(CC(=O)O)s3)C(c3ccco3)C2)cc1 (stereo not given)	inactive
CSc1nc(-c2ccc(Cl)cc2)nn1C(=O)c1ccccc1	inconclusive: 50.1 µM [inhibitor, single point]
COC(=O)c1cccc(NC(=O)c2ccc(OC)c(Cl)c2)c1	inactive
O=c1cc(-c2ccc(O)c(O)c2)oc2c1ccc1ccccc12	inconclusive: 20 µM [inhibitor, partial curve]
CCOC(=O)c1ccccc1NC(=O)COC(=O)C(Cc1c[nH]c2ccccc12)NC(C)=O (stereo not given)	inconclusive: 56.2 µM [inhibitor, partial curve, poor fit]
CC(C)OC(=O)C(C(=O)C(F)(F)F)c1cc(NS(=O)(=O)c2ccc3ccccc3c2)c2ccccc2c1O (stereo not given)	inactive
CCn1cc(S(=O)(=O)Nc2ccc(Cl)cc2F)cn1	inconclusive: 3.55 µM [inhibitor, partial curve, poor fit]
Cc1ccc(/C=C2/SC(=S)N(c3ccc(S(=O)(=O)Nc4nccs4)cc3)C2=O)cc1	inconclusive: 35.5 µM [fluorescent, side channel, single point]
CCCn1c(=N)n(CC(=O)c2ccc([N+](=O)[O-])cc2)c2ccccc21	inconclusive: 6.31 µM [inhibitor, single point]
Nc1nc(N2CCN(Cc3ccccc3)CC2)n[nH]1	active: 35.5 µM
CCN(CC)c1cccc(OC2=NS(=O)(=O)c3ccccc32)c1	inconclusive: 20 µM [inhibitor, partial curve, poor fit]
CC(C)CC1(C)N=C(c2ccccc2)C(=S)N1 (stereo not given)	inactive

Structure (SMILES)	Potency
N#Cc1ccccc1COc1ccc(/C=C/C(=O)O)cc1	inconclusive: 39.8 µM [quencher, side channel, partial curve, poor fit]
COc1cccc(-c2csc(N3CCN(C(=O)Nc4ccc(F)cc4)CC3)n2)c1	inactive
CCOC(=O)C1=C(CNCc2ccc(Cl)cc2)NC(=O)NC1c1ccccc1 (stereo not given)	inconclusive: 31.6 µM [quencher, side channel, partial curve]
CC1CCN(C(=O)c2ccc(S(=O)(=O)N3CCCC3)cc2)CC1	inconclusive: 11.2 µM [inhibitor, partial curve, poor fit]
CCOC(=O)N1CCC(=NNC(=O)c2ccc(O)cc2)CC1	inactive
O=C(CC1Sc2ccc(C(F)(F)F)cc2NC1=O)Nc1ccc(Cl)c(C(F)(F)F)c1 (stereo not given)	inconclusive: 50.1 µM [quencher, side channel, partial curve, poor fit]
NC(=S)N/N=C1\CC(c2ccc3c(c2)OCCCO3)Oc2ccc(F)cc21 (stereo not given)	inactive
O=c1[nH]cc(N(CCO)CCO)c(=O)[nH]1	inconclusive: 56.2 µM [inhibitor, partial curve, poor fit]
CCOc1ccc(CC(=O)NCc2ccc3c(c2)cc(C)n3C)cc1	active: 39.8 µM
CN(C)c1ccc2c3c(ccc(N(C)C)c13)C(=O)OC2	inconclusive: 39.8 µM [inhibitor, partial curve, poor fit]
Cc1ccc(Cn2c(=O)c3cccnc3n(CC(=O)Nc3cccc(C(F)(F)F)c3)c2=O)cc1	inconclusive: 31.6 µM [fluorescent, side channel, single point]
CC(=O)c1nn(-c2ccc(Cl)cc2)cc1C(=O)c1ccc(C)cc1	inconclusive: 28.2 µM [quencher, side channel, partial curve, poor fit]
N#CC1=C(N)Oc2c(ccc3cccnc23)C1c1cccnc1 (stereo not given)	inconclusive: 0.708 µM [inhibitor, full curve, poor fit]
Cc1ccc(-c2cc(C(F)(F)F)n3nc(C(=O)Nc4ccc(Cl)cc4Cl)cc3n2)cc1	inconclusive: 28.2 µM [quencher, side channel, partial curve, poor fit]
Cc1cc(C)cc(-n2c(SCC(=O)N3CCCCC3)nc3c([nH]c4ccccc43)c2=O)c1	inactive
CCc1ccccc1NC(=O)c1nnn(-c2ccc(F)cc2)c1C	inconclusive: 100 µM [inhibitor, single point]
CC(=O)c1ccc(OCc2ccc(Oc3c(Cl)cccc3[N+](=O)[O-])cc2)cc1	inconclusive: 28.2 µM [inhibitor, partial curve, poor fit]
CCOC(=O)c1c(C)n(CCOc2ccccc2)c2ccc(O)cc12	inconclusive: 25.1 µM [inhibitor, partial curve, poor fit]
CC1CC1C(=O)OCC(=O)NC(=O)NC12CC3CC(CC(C3)C1)C2 (stereo not given)	inconclusive: 7.08 µM [quencher, side channel, full curve, poor fit]
CC(C)OCCCNC(=O)C1CCC(CNS(=O)(=O)c2ccccc2)CC1 (stereo not given)	inconclusive: 50.1 µM [inhibitor, single point]
CC(C)Cn1c(SCC(=O)NCc2ccc(Cl)cc2)nnc1-c1cccc(S(=O)(=O)N2CCOCC2)c1	inconclusive: 100 µM [inhibitor, single point]

Look-ups from the entries so far:
Value of `COc1ccc(C)cc1NS(=O)(=O)c1cccc2nonc12` under Potency: inconclusive: 3.98 µM [inhibitor, partial curve, poor fit]
Value of `CCCCCCCCCC(=O)N1CCN(c2cc3c(cc2F)c(=O)c(C(=O)O)cn3CC)CC1` under Potency: inconclusive: 31.6 µM [inhibitor, single point]
Value of `Cc1ccc(-c2nc(S(=O)(=O)c3ccc(C)cc3)c(N3CCOCC3)o2)cc1` under Potency: inconclusive: 11.2 µM [inhibitor, single point]
